Data as given in PubChem BioAssay AID1259308 (NCATS, 2017)
Test: 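Knock-downs that increase output of a recombinant reporter protein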 (primary screen). Cell system: human HEK293 embryonic kidney cells stably expressing firefly luciferase (HEK-CMV-Luc2-Hygro). Knock-down reagent: single siRNA against human genes, 0.8 pmol siRNA per well. Timing: 72 h. Measurement: 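Reporter luminescence and viable-cell signal on separate replicate plates, given as percent of non-targeting control and median/MAD z-scores, plus per-cell luciferase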. Scale: total luciferase, z-score: higher = more reporter protein produced. Active means: 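Active when the median/MAD z-score for overall luciferase is greater than 3; a gene was taken forward for validation with new siRNAs if at least two of its three siRNAs passed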. Meaning of the calls: active = raised luciferase; inactive = no rise.
Here is an unselected part of about 59,000 reagents. About 1,510 of all reagents (2.6%) count as active. 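Calls use total luciferase alone and ignore viability, so some active siRNAs may act by altering cell number.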 The numbers tell different reagents against one gene apart. Not all columns of the deposit are shown. Reagent sequences are not shown.

For FOXF1 #1, what was measured?
total luciferase, z-score: -1.48; Outcome: inactive

Which result is listed for FOXF1 #2?
total luciferase, z-score: 1.64; Outcome: inactive

What did the screen give for FOXF1 #3?
total luciferase, z-score: -0.768; Outcome: inactive

With STOML2 #1, how do the results read?
total luciferase, z-score: -0.755; Outcome: inactive

With STOML2 #2, what was measured?
total luciferase, z-score: -0.976; Outcome: inactive

With STOML2 #3, what does the deposit list?
total luciferase, z-score: 1.39; Outcome: inactive

What is on record for EPHA3 #1?
total luciferase, z-score: -0.224; Outcome: inactive

How did the screen score EPHA3 #2?
total luciferase, z-score: 0.15; Outcome: inactive

For EPHA3 #3, what does the deposit list?
total luciferase, z-score: -0.413; Outcome: inactive

How did the screen score PCDHA10 #1?
total luciferase, z-score: -1.82; Outcome: inactive

Which result is listed for PCDHA10 #2?
total luciferase, z-score: -0.0543; Outcome: inactive

For PCDHA10 #3, what does the deposit list?
total luciferase, z-score: 0.213; Outcome: inactive

For NPFF #1, how do the results read?
total luciferase, z-score: -0.658; Outcome: inactive

With NPFF #2, what does the deposit list?
total luciferase, z-score: 5.14; Outcome: active

What is on record for NPFF #3?
total luciferase, z-score: -1.69; Outcome: inactive

Which result is listed for HACD4 #1?
total luciferase, z-score: -1.25; Outcome: inactive

With HACD4 #2, how do the results read?
total luciferase, z-score: 0.689; Outcome: inactive

How did the screen score HACD4 #3?
total luciferase, z-score: -0.837; Outcome: inactive

For HSPA9 #1, how do the results read?
total luciferase, z-score: -1.96; Outcome: inactive

For HSPA9 #2, how do the results read?
total luciferase, z-score: -1.87; Outcome: inactive

With HSPA9 #3, what was measured?
total luciferase, z-score: -2.52; Outcome: inactive

With OR2T1 #1, how do the results read?
total luciferase, z-score: -0.382; Outcome: inactive

What did the screen give for OR2T1 #2?
total luciferase, z-score: 0.43; Outcome: inactive

For OR2T1 #3, what was measured?
total luciferase, z-score: 2.48; Outcome: inactive

What is on record for PABIR1 #1?
total luciferase, z-score: 0.0539; Outcome: inactive

What did the screen give for PABIR1 #2?
total luciferase, z-score: 2.23; Outcome: inactive

For PABIR1 #3, how do the results read?
total luciferase, z-score: 0.111; Outcome: inactive

For CCNB2 #1, how do the results read?
total luciferase, z-score: 0.255; Outcome: inactive

What is on record for CCNB2 #2?
total luciferase, z-score: -1.06; Outcome: inactive

Which result is listed for CCNB2 #3?
total luciferase, z-score: 2.05; Outcome: inactive

Which result is listed for TMEM229B #1?
total luciferase, z-score: 2.72; Outcome: inactive

What did the screen give for TMEM229B #2?
total luciferase, z-score: -2.43; Outcome: inactive

What is on record for TMEM229B #3?
total luciferase, z-score: -2.09; Outcome: inactive
